According to patent US20160222085A1 (CHILDREN S HOSPITAL OF PHILADELPHIA, published 2016):
Results are given in words; binding and its absence hold for the method and conditions named. Binding can be weak; no strength is given.

B1: Factor V basic region peptide (FVBR), amino acids 951-1008 of Factor V (peptide)
peptide: SRAWGESTPLANKPGKQSGHPKFPRVRHKSLQVRQDGGKSRLKKSQFLIKTRKKKKEK
notes: Expressed in E. coli as a SUMO fusion; also called FV basic peptide; BR peptide

What was measured:
[1] = target: FV-810 (FV-DT), Factor V with amino acids 811-1491 deleted from the B-domain (human); test: fluorescence anisotropy, competition; unlabeled TFPI peptide titrated into Oregon Green 488 FVBR plus FVDT; competitor: Oregon Green 488 FVBR
[2] = target: FV-810 (FV-DT), Factor V with amino acids 811-1491 deleted from the B-domain (human); test: fluorescence anisotropy, competition; unlabeled FVBR titrated into Oregon Green 488 FVBR plus FVDT; competitor: Oregon Green 488 FVBR
[3] = target: FV-810 (FV-DT), Factor V with amino acids 811-1491 deleted from the B-domain (human); test: fluorescence anisotropy, displacement; human BR titrated into 30 nM OG488-BR, 20 nM FV-810, 50 uM PCPS, 25 C; competitor: OG488-BR
[4] = target: FV-810 (FV-DT), Factor V with amino acids 811-1491 deleted from the B-domain (human); test: fluorescence anisotropy, displacement; unlabeled BR titrated into 30 nM OG488-BR, 20 nM FV-810, 50 uM PCPS; competitor: OG488-BR [inset]
[5] = target: FV-810 (FV-DT), Factor V with amino acids 811-1491 deleted from the B-domain (human); test: fluorescence anisotropy, displacement; FVBR titrated into labeled active site-blocked FXa plus FVDT on PCPS liposomes; displaced ligand: labeled FXa

Row | Binder | binding [1] | binding [2] | binding [3] | binding [4] | binding [5]
1 | KKGFIQRISKGGLIKTKRKRKKQRVK [TFPI C-terminal tail peptide] | binds |  |  |  | 
2 | B1 |  | binds | binds | binds | binds
